Results as given in the supplement of paper PMC10331698.
± gives the standard deviation of the averaged measurements. Most entries show no effect beyond the scatter of the controls.

What was measured:
Assay in all cases: level (log10 ratio to DMSO vehicle control); higher = higher biomarker level / cell amount than vehicle control
[1] = compound: C=C(C)C(=O)OCC(F)(F)C(F)(F)C(F)(F)C(F)(F)C(F)(F)C(F)(F)C(F)(F)F; conditions: in DMSO
Procedure: (§1)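 BioMAP Diversity Plus panel of 12 human primary cell co-culture systems (3C, 4H, LPS, SAg, BT, BF4T, BE3C, CASM3C, HDF3CGF, KF3CT, MyoF, Mphg). Compounds were added 1 h before stimulation and left for 24 h (MyoF 48 h; BT 72 h for soluble read-outs or 6 d for IgG). Biomarkers were read by ELISA, cytotoxicity by SRB, PBMC viability and proliferation by Alamar Blue. Each well value was divided by the mean of 8 DMSO control wells on the same plate and log10 transformed; duplicate blinded samples were tested at 4 concentrations.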

[2] = compound: C=CC(=O)OCC(F)(F)C(F)(F)C(F)(F)C(F)(F)C(F)(F)C(F)(F)C(F)(F)F [1H,1H-Perfluorooctyl acrylate]; conditions: 2200 nM; in DMSO
Procedure: as §1

[3] = compound: C=CC(F)(F)C(F)(F)C(F)(F)C(F)(F)C(F)(F)C(F)(F)C(F)(F)C(F)(F)C=C [1,8-Divinylperfluorooctane]; conditions: in DMSO
Procedure: as §1

[4] = compound: COC(=O)C(F)(F)C(F)(F)OC(F)(C(F)(F)F)C(F)(F)OC(F)=C(F)F [Methyl perfluoro(3-(1-ethenyloxypropan-2-yloxy)propanoate)]; conditions: in DMSO
Procedure: as §1

[5] = compound: CO[Si](C)(CCC(F)(F)C(F)(F)C(F)(F)C(F)(F)C(F)(F)C(F)(F)F)OC [Dimethoxymethyl((perfluorohexyl)ethyl)silane]; conditions: in DMSO
Procedure: as §1

[6] = compound: FC(F)(F)C(F)(F)C(F)(F)CC1CO1 [1H,1H-Heptafluorobutyl epoxide]; conditions: 2200 nM; in DMSO
Procedure: as §1

Heptafluorobutyl iodide = compound: FC(F)(F)C(F)(F)C(F)(F)CI [Heptafluorobutyl iodide]; conditions: 2200 nM; in DMSO
Procedure: as §1

[7] = compound: NC(=O)C(F)(F)C(F)(F)C(F)(F)C(F)F; conditions: in DMSO
Procedure: as §1

Pentafluoropropionamide = compound: NC(=O)C(F)(F)C(F)(F)F [Pentafluoropropionamide]; conditions: 2200 nM; in DMSO
Procedure: as §1

[8] = compound: NS(=O)(=O)C(F)(F)C(F)(F)C(F)(F)C(F)(F)C(F)(F)C(F)(F)C(F)(F)C(F)(F)F [Perfluorooctanesulfonamide]; conditions: in DMSO
Procedure: as §1

[9] = compound: O=C(O)C(F)(F)C(F)(F)C(F)F [4H-Perfluorobutanoic acid]; conditions: in DMSO
Procedure: as §1

[10] = compound: O=P(O)(O)CCC(F)(F)C(F)(F)C(F)(F)C(F)(F)C(F)(F)C(F)(F)F [2-(Perfluorohexyl)ethylphosphonic acid]; conditions: 2200 nM; in DMSO
Procedure: as §1

[11] = compound: O=S(=O)(F)C(F)(F)C(F)(F)C(F)(F)C(F)(F)C(F)(F)C(F)(F)C(F)(F)C(F)(F)F [Perfluorooctanesulfonyl fluoride]; conditions: 2200 nM; in DMSO
Procedure: as §1

[12] = compound: O=S(=O)(O)C(F)(F)C(F)(F)C(F)(F)C(F)(F)C(F)(F)C(F)(F)C(F)(F)C(F)(F)F [Perfluorooctanesulfonic acid]; conditions: 2200 nM; in DMSO
Procedure: as §1

[13] = compound: O=S(=O)(O)C(F)(F)C(F)(F)C(F)(F)C(F)(F)C(F)(F)C(F)(F)C(F)(F)C(F)(F)F [Potassium perfluorooctanesulfonate]; conditions: 2200 nM; in DMSO
Procedure: as §1

[14] = compound: O=S(=O)(OCC(F)(F)F)C(F)(F)C(F)(F)C(F)(F)C(F)(F)F [2,2,2-Trifluoroethyl perfluorobutanesulfonate]; conditions: 2200 nM; in DMSO
Procedure: as §1

[15] = compound: OCC(F)(F)C(F)(F)C(F)(F)C(F)(F)C(F)(F)C(F)F [1H,1H,7H-Dodecafluoro-1-heptanol]; conditions: 2200 nM; in DMSO
Procedure: as §1

[16] = compound: OCCCCC(F)(F)C(F)(F)C(F)(F)C(F)(F)F [4:4 Fluorotelomer alcohol]; conditions: 2200 nM; in DMSO
Procedure: as §1

Test System	level (log10) ([1]; 740 nM)	level (log10) ([1]; 2200 nM)	level (log10) [2]	level (log10) ([3]; 740 nM)	level (log10) ([3]; 2200 nM)	level (log10) ([4]; 740 nM)	level (log10) ([4]; 2200 nM)	level (log10) ([5]; 740 nM)	level (log10) ([5]; 2200 nM)	level (log10) [6]	level (log10) (Heptafluorobutyl iodide)	level (log10) ([7]; 2200 nM)	level (log10) ([7]; 6700 nM)	level (log10) ([7]; 20000 nM)	level (log10) ([7]; 60000 nM)	level (log10) (Pentafluoropropionamide)	level (log10) ([8]; 2200 nM)	level (log10) ([8]; 6700 nM)	level (log10) ([8]; 20000 nM)	level (log10) ([9]; 2200 nM)	level (log10) ([9]; 6700 nM)	level (log10) ([9]; 20000 nM)	level (log10) ([9]; 60000 nM)	level (log10) [10]	level (log10) [11]	level (log10) [12]	level (log10) [13]	level (log10) [14]	level (log10) [15]	level (log10) [16]
SAg:CD38	-0.003 ± 0.0028	-0.0055 ± 0.013	0.007 ± 0.028	-0.001 ± 0.017	-0.022 ± 0.011	0.033 ± 0.071	-0.021 ± 0.089	0.001 ± 0.041	-0.0025 ± 0.00071	0.0335 ± 0.06	-0.0045 ± 0.012	-0.0105 ± 0.012	-0.034 ± 0.014	-0.027 ± 0.02	-0.0295 ± 0.0064	0.01 ± 0.0071	-0.0005 ± 0.043	-0.006 ± 0.0071	-0.089 ± 0.016	0.0465 ± 0.005	0.008 ± 0.028	0.0195 ± 0.0021	0.017 ± 0.021	0.0075 ± 0.00071	0.013 ± 0.0042	-0.008 ± 0.014	-0.017 ± 0.0085	-0.008 ± 0.014	0.005 ± 0.011	-0.008 ± 0.0028
SAg:CD40	-0.0265 ± 0.0078	-0.044 ± 0.014	0.0055 ± 0.011	-0.0145 ± 0.021	-0.0275 ± 0.018	-0.015 ± 0.017	-0.0295 ± 0.0021	-0.034 ± 0.0042	-0.0185 ± 0.0064	-0.0025 ± 0.042	-0.0445 ± 0.066	-0.0175 ± 0.0035	-0.023 ± 0.0028	-0.0155 ± 0.019	-0.02 ± 0.028	-0.0315 ± 0.047	-0.011 ± 0.0071	-0.028 ± 0.0042	-0.1085 ± 0.00071	-0.016 ± 0.051	0 ± 0.0028	-0.056 ± 0.045	-0.028 ± 0.044	-0.0005 ± 0.005	-0.028 ± 0.034	-0.0175 ± 0.03	-0.0125 ± 0.018	-0.013 ± 0.031	0.008 ± 0.016	0.013 ± 0.0014
SAg:CD62E/E-Selectin	0.012 ± 0.014	0.0065 ± 0.0035	0.0125 ± 0.021	-0.008 ± 0.023	-0.016 ± 0.024	0 ± 0.03	0.0065 ± 0.033	-0.0185 ± 0.015	-0.018 ± 0.017	0.001 ± 0.017	-0.0155 ± 0.022	0.011 ± 0.051	0.005 ± 0.04	-0.0135 ± 0.039	0.0155 ± 0.036	-0.002 ± 0.0014	0.019 ± 0.028	-0.0165 ± 0.00071	-0.0845 ± 0.015	-0.007 ± 0.021	-0.0205 ± 0.018	-0.002 ± 0.0014	0.0175 ± 0.0078	0.0065 ± 0.033	-0.0055 ± 0.043	0.007 ± 0.034	-0.0005 ± 0.00071	-0.0065 ± 0.005	-0.006 ± 0.02	0.0125 ± 0.021
SAg:CD69	0.008 ± 0.035	0.0025 ± 0.032	-0.01	-0.0145 ± 0.018	-0.0205 ± 0.032	-0.0215 ± 0.0064	-0.049 ± 0.0057	-0.0025 ± 0.0064	-0.0225 ± 0.028	0.0335 ± 0.042	-0.0615 ± 0.03	0.0275 ± 0.00071	0.025 ± 0.0085	0.0175 ± 0.005	0.0495 ± 0.026	-0.018 ± 0.018	0.014 ± 0.024	-0.0205 ± 0.06	-0.119 ± 0.064	-0.0145 ± 0.0021	-0.0145 ± 0.015	-0.0165 ± 0.015	0.005 ± 0.027	-0.002 ± 0.031	-0.008 ± 0.011	-0.017 ± 0.014	-0.0525 ± 0.079	-0.0105 ± 0.0064	0.0235 ± 0.0064	0.005 ± 0.0057
SAg:CXCL8/IL-8	0.022 ± 0.05	-0.0165 ± 0.046	0.0395 ± 0.036	0.0265 ± 0.044	-0.0115 ± 0.0035	-0.013 ± 0.12	-0.0405 ± 0.074	0.0085 ± 0.043	-0.0065 ± 0.00071	0.0135 ± 0.061	-0.017 ± 0.0071	0.032 ± 0.058	-0.0055 ± 0.037	0.0075 ± 0.015	0.0055 ± 0.018	0.01 ± 0.033	0.034 ± 0.0057	-0.0015 ± 0.005	-0.0505 ± 0.03	0.022 ± 0.04	-0.0325 ± 0.03	-0.0065 ± 0.022	0.025 ± 0.098	0.005 ± 0.11	0.0145 ± 0.026	-0.0015 ± 0.04	-0.001 ± 0.027	0.0235 ± 0.015	0.017 ± 0.016	0.0125 ± 0.063
SAg:CXCL9/MIG	0.0025 ± 0.005	-0.009 ± 0.0071	0 ± 0.011	-0.018	-0.0315 ± 0.0064	-0.0055 ± 0.0092	-0.0105 ± 0.011	0.0045 ± 0.016	0.014 ± 0.016	-0.0105 ± 0.00071	-0.004 ± 0.0042	-0.0015 ± 0.026	-0.0015 ± 0.0021	-0.0055 ± 0.005	0.0105 ± 0.0021	-0.0045 ± 0.005	0.0135 ± 0.022	-0.002 ± 0.0042	-0.0055 ± 0.011	0.0225 ± 0.018	-0.0115 ± 0.00071	-0.0035 ± 0.0078	0.0095 ± 0.016	0.004 ± 0.023	0.003 ± 0.0028	0.001 ± 0.014	0.006 ± 0.0057	-0.005 ± 0.025	0.005 ± 0.0099	0.0075 ± 0.005
SAg:PBMC Cytotoxicity	0.0045 ± 0.0064	0.0035 ± 0.037	0.0225 ± 0.032	-0.02 ± 0.065	-0.011 ± 0.037	-0.0115 ± 0.044	-0.0125 ± 0.00071	0.016 ± 0.067	-0.0095 ± 0.013	0.012 ± 0.042	0.028 ± 0.023	-0.009 ± 0.0057	0.018 ± 0.016	-0.008 ± 0.011	0.0425 ± 0.067	-0.0065 ± 0.0035	0.032 ± 0.038	0.009 ± 0.034	0.0315 ± 0.0064	0.0195 ± 0.023	-0.0205 ± 0.015	0.002 ± 0.0042	0.017 ± 0.033	-0.0115 ± 0.03	0.0165 ± 0.061	0.006 ± 0.058	0.002 ± 0.054	-0.002 ± 0.028	-0.0195 ± 0.043	0.0155 ± 0.033
SAg:Proliferation	0.0145 ± 0.026	-0.0005 ± 0.0021	-0.0165 ± 0.056	0.009 ± 0.034	0.0245 ± 0.035	0.0045 ± 0.042	-0.0065 ± 0.005	0.0155 ± 0.12	0.0045 ± 0.083	0.006 ± 0.0042	-0.024 ± 0.076	-0.0075 ± 0.00071	-0.0135 ± 0.018	0.0105 ± 0.0064	0.033 ± 0.018	0.004 ± 0.03	-0.0155 ± 0.057	-0.031 ± 0.042	-0.0445 ± 0.036	-0.025 ± 0.014	-0.0545 ± 0.026	-0.0325 ± 0.025	-0.0145 ± 0.03	-0.0155 ± 0.013	-0.006 ± 0.058	0.005 ± 0.083	0.0215 ± 0.043	0.035 ± 0.033	0.012 ± 0.014	-0.018 ± 0.023
